This passage reports log2 fold change results from the supplement of paper PMC10849652.

Amino acid sequences for entries named in this document (tags omitted). A change or cut given only in a name is not applied to a line headed by its entry.
UniProt O75688: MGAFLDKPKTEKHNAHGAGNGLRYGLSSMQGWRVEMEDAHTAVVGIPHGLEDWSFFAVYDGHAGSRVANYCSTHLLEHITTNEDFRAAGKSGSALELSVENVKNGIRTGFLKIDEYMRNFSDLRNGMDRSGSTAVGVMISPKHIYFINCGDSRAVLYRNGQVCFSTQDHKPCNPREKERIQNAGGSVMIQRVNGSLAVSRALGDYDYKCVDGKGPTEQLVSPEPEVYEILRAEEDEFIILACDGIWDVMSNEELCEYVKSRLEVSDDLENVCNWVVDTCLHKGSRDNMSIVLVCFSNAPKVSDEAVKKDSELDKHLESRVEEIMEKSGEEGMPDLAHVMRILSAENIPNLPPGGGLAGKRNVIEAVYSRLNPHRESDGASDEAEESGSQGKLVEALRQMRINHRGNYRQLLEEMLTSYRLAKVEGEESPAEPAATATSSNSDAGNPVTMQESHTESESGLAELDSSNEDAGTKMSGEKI
UniProt O60237: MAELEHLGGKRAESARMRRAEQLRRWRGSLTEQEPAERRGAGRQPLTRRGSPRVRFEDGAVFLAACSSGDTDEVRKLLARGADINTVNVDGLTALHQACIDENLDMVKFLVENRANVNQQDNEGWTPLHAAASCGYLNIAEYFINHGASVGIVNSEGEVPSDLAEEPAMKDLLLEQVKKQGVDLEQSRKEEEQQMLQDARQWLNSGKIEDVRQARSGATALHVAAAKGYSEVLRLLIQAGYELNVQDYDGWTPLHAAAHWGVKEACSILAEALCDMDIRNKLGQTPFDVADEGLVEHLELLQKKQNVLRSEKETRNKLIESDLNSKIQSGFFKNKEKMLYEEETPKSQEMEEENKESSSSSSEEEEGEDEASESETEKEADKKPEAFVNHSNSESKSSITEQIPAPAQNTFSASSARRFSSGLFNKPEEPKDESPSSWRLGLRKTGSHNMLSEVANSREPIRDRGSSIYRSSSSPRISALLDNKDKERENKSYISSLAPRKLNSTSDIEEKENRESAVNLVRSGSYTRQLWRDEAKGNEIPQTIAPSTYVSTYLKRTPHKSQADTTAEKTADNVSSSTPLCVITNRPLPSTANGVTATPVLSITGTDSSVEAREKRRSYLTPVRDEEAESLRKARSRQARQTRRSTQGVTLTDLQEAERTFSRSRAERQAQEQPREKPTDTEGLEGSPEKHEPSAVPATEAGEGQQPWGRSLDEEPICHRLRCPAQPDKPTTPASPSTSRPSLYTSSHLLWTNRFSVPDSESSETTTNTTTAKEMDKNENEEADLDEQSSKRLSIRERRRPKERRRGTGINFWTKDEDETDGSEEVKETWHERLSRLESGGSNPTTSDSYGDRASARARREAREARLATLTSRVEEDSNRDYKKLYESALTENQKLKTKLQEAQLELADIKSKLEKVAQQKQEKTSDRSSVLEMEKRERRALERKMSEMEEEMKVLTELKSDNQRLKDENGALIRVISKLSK
UniProt P55345: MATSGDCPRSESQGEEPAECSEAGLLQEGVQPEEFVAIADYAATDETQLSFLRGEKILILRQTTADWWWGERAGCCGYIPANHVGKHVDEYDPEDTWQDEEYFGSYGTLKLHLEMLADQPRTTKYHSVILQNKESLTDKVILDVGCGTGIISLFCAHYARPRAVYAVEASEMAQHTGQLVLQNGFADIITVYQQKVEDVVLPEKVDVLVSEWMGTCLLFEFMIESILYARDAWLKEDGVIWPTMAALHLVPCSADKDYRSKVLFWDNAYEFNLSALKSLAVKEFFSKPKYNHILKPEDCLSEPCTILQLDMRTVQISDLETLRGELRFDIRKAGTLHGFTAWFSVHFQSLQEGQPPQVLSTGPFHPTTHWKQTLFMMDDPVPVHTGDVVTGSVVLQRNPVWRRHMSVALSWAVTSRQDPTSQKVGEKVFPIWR
UniProt P51817: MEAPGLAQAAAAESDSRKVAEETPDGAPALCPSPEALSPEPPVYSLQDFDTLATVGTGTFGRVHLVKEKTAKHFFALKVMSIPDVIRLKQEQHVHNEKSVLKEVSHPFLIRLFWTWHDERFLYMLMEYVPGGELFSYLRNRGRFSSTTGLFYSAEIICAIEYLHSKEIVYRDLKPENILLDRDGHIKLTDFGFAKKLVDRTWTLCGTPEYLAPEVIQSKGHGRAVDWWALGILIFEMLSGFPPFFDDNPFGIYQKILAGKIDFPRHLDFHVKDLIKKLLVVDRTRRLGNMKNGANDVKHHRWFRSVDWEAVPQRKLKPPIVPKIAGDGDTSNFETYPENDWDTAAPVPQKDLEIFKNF
UniProt Q9Y570: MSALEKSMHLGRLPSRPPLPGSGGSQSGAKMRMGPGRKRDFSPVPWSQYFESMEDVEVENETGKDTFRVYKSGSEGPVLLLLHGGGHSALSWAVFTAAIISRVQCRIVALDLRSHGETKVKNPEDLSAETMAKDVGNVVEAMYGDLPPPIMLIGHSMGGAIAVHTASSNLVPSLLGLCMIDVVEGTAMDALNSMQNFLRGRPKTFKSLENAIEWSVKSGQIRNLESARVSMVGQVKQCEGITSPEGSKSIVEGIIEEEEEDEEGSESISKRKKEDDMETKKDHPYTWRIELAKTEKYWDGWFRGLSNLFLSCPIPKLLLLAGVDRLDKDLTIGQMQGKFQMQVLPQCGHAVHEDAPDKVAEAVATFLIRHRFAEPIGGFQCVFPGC
UniProt Q8WUF5: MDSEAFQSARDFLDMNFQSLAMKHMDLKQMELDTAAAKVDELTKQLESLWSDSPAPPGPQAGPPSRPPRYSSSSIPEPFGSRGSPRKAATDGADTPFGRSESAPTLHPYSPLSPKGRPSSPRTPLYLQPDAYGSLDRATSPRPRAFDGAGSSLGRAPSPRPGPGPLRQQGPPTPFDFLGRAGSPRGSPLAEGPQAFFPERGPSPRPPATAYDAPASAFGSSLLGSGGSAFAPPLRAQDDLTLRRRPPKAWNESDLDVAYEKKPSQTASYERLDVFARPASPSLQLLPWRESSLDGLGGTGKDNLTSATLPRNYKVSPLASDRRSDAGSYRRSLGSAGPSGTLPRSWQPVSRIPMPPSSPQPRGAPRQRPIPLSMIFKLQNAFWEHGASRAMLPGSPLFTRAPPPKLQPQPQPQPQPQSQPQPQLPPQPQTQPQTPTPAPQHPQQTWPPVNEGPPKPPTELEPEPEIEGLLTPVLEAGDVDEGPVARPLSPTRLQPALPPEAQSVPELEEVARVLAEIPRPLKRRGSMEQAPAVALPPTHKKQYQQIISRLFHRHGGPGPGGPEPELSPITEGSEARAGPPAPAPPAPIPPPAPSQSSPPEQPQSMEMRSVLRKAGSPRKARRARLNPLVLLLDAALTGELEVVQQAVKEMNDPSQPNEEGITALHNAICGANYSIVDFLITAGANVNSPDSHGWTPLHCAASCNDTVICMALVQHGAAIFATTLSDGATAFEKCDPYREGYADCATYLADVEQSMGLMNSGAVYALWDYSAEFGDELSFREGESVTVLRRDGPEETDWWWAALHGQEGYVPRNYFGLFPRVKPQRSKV
UniProt O75400: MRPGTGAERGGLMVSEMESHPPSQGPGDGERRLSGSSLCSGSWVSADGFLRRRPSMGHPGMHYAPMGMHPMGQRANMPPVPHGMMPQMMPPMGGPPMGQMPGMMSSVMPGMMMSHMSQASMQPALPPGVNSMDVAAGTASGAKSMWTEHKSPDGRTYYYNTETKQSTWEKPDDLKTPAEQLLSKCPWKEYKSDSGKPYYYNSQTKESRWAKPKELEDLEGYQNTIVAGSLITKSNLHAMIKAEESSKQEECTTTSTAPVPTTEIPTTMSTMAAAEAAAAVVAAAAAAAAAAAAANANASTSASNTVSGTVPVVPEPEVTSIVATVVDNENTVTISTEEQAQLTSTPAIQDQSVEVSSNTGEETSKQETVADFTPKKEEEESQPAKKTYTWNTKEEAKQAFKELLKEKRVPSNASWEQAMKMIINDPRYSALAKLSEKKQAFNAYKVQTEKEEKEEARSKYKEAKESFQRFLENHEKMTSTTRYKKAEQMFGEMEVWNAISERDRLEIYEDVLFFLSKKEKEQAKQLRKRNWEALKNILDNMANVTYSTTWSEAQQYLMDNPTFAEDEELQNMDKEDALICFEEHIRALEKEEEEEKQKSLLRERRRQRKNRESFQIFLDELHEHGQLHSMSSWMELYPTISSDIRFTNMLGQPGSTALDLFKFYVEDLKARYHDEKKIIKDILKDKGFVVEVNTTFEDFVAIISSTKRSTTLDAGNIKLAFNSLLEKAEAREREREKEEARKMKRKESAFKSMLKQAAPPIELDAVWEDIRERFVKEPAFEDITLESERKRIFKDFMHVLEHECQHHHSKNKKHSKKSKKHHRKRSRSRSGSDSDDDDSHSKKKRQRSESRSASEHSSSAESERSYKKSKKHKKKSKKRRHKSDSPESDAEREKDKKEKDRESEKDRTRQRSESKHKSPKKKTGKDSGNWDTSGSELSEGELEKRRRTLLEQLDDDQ
UniProt Q9NQV6: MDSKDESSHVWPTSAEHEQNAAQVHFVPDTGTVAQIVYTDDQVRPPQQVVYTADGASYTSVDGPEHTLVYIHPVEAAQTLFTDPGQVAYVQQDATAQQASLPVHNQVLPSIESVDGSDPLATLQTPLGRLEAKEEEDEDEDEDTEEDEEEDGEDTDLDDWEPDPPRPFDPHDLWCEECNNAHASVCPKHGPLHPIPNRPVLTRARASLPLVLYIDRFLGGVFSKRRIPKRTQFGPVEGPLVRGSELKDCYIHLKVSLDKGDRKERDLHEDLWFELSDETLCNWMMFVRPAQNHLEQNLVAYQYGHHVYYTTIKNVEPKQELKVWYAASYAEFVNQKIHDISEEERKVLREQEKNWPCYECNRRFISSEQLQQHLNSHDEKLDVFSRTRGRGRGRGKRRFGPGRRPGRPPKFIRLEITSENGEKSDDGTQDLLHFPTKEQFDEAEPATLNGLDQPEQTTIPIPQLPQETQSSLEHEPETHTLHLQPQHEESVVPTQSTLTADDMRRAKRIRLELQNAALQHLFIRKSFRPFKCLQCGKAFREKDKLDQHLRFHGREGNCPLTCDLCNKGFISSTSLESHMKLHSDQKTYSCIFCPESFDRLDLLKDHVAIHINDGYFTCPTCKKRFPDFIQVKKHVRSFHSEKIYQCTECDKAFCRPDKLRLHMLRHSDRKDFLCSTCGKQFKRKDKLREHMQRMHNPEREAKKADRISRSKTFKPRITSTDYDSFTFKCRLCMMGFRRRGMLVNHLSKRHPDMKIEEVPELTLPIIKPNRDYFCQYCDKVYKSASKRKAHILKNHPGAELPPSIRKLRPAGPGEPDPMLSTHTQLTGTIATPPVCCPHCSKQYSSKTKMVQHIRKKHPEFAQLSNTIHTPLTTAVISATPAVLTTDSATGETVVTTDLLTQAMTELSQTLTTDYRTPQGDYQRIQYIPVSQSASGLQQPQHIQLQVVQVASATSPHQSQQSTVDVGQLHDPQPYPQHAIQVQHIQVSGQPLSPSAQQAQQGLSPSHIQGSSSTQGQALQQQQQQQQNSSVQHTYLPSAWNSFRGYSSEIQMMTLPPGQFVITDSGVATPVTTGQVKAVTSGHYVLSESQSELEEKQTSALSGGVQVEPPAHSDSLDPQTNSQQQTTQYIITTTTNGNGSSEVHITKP
UniProt Q15173: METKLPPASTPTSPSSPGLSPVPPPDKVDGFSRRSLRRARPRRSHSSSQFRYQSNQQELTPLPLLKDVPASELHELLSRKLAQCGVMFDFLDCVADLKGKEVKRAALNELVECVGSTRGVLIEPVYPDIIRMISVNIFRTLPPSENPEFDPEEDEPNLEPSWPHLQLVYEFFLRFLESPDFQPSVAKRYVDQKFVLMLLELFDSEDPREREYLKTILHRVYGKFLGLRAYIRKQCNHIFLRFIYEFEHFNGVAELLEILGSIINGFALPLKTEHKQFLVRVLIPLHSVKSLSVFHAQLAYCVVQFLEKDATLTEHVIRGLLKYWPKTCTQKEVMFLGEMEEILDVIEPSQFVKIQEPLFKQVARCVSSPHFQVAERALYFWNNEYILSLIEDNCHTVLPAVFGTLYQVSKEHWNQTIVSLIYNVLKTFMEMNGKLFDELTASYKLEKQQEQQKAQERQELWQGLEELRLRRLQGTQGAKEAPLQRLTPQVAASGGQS
UniProt Q9ULR3: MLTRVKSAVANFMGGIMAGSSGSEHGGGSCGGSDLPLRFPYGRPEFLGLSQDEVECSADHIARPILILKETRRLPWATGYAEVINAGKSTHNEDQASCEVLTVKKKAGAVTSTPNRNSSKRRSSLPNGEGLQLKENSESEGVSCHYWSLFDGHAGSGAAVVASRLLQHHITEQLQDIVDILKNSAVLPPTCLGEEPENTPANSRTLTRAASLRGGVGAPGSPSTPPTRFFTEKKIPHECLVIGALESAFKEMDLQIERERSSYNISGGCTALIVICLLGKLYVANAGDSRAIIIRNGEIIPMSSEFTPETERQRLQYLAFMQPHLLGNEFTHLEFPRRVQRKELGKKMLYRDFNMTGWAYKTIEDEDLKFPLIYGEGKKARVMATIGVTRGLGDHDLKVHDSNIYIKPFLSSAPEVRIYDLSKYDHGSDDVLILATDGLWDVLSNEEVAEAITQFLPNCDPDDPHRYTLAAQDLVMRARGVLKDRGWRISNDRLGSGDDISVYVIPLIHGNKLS

Some of the results follow.

Compound in the assay: c1cn2cc(-c3ccc4cn[nH]c4c3)nc(Nc3ccc(N4CCOCC4)cc3)c2n1 [entospletinib]
Kind of assay: log2 fold change, soluble protein after heating vs DMSO (PISA); higher = thermal stabilisation; K562 lysate, 10 uM; active = over 0.2 and 3.5 SD of the protein, either way, in both replicates (recomputed). Summed up:
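K562 pellets were dounce-homogenised in PBS pH 7.4 with 1 mM MgCl2, and the crude extract at 1 mg/mL protein was treated with 10 μM compound for 30 min. Aliquots were heated for 3 min across 48°C-58°C, pooled, and brought to 0.5% NP-40 at 4°C; soluble protein was the supernatant after 21,000xg for 90 min. Soluble protein was quantified by TMTpro 16plex LC-MS/MS with channel sums equalised, and reported as log2 fold change in thermal stability against DMSO controls, with values from duplicates.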
For PRKD3 (UniProt O94806), the log2 fold change is inactive: 0.013. Then PPM1B isoform 2 (UniProt O75688), with inactive: -0.018; and PPP1R12B isoform 6 (UniProt O60237), with inactive: -0.052. For PPP1R16A (UniProt Q96I34) the value was inactive: 0.215; for PRG2 (UniProt P13727), inactive: 0.017; for PRMT2 (UniProt P55345), inactive: -0.008.

As to PRKDC (UniProt P78527), the log2 fold change was inactive: 0.013. In the case of PRKX (UniProt P51817), the log2 fold change is inactive: -0.133. Take PPME1 (UniProt Q9Y570): the log2 fold change is inactive: -0.063. With PPIP5K2 (UniProt H0Y9S9), the log2 fold change was inactive: -0.251. On to PPP1R13L (UniProt Q8WUF5), for which the log2 fold change was inactive: 0.108. Then PRPF40A isoform 3 (UniProt O75400), with inactive: 0.15.

Consider PRDM10 isoform 6 (UniProt Q9NQV6), for which the log2 fold change is inactive: 0.002. For PPP2R5B (UniProt Q15173) the value was inactive: 0.028; for PPM1H (UniProt Q9ULR3), inactive: -0.002.
